PubChem BioAssay AID493246 | Drosophila RNAi Screening Center | 2011
Aim: 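Identify essential fly genes by loss of cell viability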 (primary screen). Cells: Drosophila Kc and S2R+ cells. Reagent: long dsRNA against Drosophila genes. Measurement: 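Raw, unnormalised count of remaining cells in each well; per-plate z-scores of cell number underlie the calls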. Reading the numbers: Kc cell number and S2R+ cell number: higher = more cells remaining. Hit rule: 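Counted as a hit if cell number falls by a z-score of at least 3 within its plate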.
The screen tested about 21,000 reagents; below is an unselected part of those that have a named target and a result. Over the whole deposit, 429 (2%) got an active call. 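Values are raw and not normalised between plates; calls rest on per-plate z-scores that were not deposited.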 No sequences are given here. Not stated in the record: the amount of reagent, the time to read-out.

sac (sterile affecting ciliogenesis) [SID104192029]
- Kc cell number, rep 1: 1.32e6
- Kc cell number, rep 2: 1.45e6
- S2R+ cell number, rep 1: 1.27e6
- S2R+ cell number, rep 2: 1.35e6
- outcome: inactive

sm (smooth) [SID104185587]
- Kc cell number, rep 1: 5.45e5
- S2R+ cell number, rep 1: 7.84e5
- outcome: inactive

sm (smooth) [SID104187478]
- Kc cell number, rep 1: 1.29e6
- Kc cell number, rep 2: 1.30e6
- S2R+ cell number, rep 1: 1.09e6
- S2R+ cell number, rep 2: 1.16e6
- outcome: inactive

Or94a (Odorant receptor 94a) [SID104196564]
- Kc cell number, rep 1: 1.49e6
- Kc cell number, rep 2: 1.46e6
- S2R+ cell number, rep 1: 9.63e5
- S2R+ cell number, rep 2: 1.03e6
- outcome: inactive

salt (salty dog) [SID104195219]
- Kc cell number, rep 1: 5.62e5
- S2R+ cell number, rep 1: 7.81e5
- outcome: inactive

CG31954 [SID104180372]
- Kc cell number, rep 1: 1.58e6
- Kc cell number, rep 2: 1.54e6
- S2R+ cell number, rep 1: 7.58e5
- S2R+ cell number, rep 2: 8.55e5
- outcome: inactive

Ect3 (Ectoderm-expressed 3) [SID104195254]
- Kc cell number, rep 1: 1.93e6
- Kc cell number, rep 2: 1.97e6
- S2R+ cell number, rep 1: 1.37e6
- S2R+ cell number, rep 2: 1.47e6
- outcome: inactive

His3.3A (Histone H3.3A) [SID104183135]
- Kc cell number, rep 1: 1.14e6
- Kc cell number, rep 2: 1.12e6
- S2R+ cell number, rep 1: 6.23e5
- S2R+ cell number, rep 2: 7.51e5
- outcome: active

Eig71Ed (Ecdysone-induced gene 71Ed) [SID104190943]
- Kc cell number, rep 1: 1.46e6
- Kc cell number, rep 2: 1.62e6
- S2R+ cell number, rep 1: 1.33e6
- S2R+ cell number, rep 2: 1.48e6
- outcome: inactive

Sec63 (Secretory 63) [SID104190794]
- Kc cell number, rep 1: 1.89e6
- Kc cell number, rep 2: 1.89e6
- S2R+ cell number, rep 1: 1.17e6
- S2R+ cell number, rep 2: 1.25e6
- outcome: inactive

CG18682 (retired record) [SID104195165]
- Kc cell number, rep 1: 1.50e6
- Kc cell number, rep 2: 1.60e6
- S2R+ cell number, rep 1: 1.09e6
- S2R+ cell number, rep 2: 1.21e6
- outcome: inactive

CG18682 (retired record) [SID104195166]
- Kc cell number, rep 1: 1.49e6
- Kc cell number, rep 2: 1.77e6
- S2R+ cell number, rep 1: 1.05e6
- S2R+ cell number, rep 2: 1.19e6
- outcome: inactive

CG17999 [SID104184092]
- Kc cell number, rep 1: 1.34e6
- Kc cell number, rep 2: 1.43e6
- S2R+ cell number, rep 1: 1.15e6
- S2R+ cell number, rep 2: 1.17e6
- outcome: inactive

CG17107 [SID104182367]
- Kc cell number, rep 1: 1.50e6
- Kc cell number, rep 2: 1.48e6
- S2R+ cell number, rep 1: 1.08e6
- S2R+ cell number, rep 2: 1.16e6
- outcome: inactive
